The target of experiment [1] is Human peroxiredoxin 6 (Prx6) (human (endogenous in human pulmonary artery smooth muscle cells)) (UniProt P30041). The experiment in a line: non-reducing SDS-PAGE and immunoblot; human pulmonary artery smooth muscle cells treated with H2O2 for 15 min; lysates labelled with Protein-SHifter Plus, SDS-PAGE without BME, immunoblot with Prx6 antibody.
The target of experiment [2] is Rat peroxiredoxin 6 (Prx6) (rat (endogenous in rat pulmonary artery smooth muscle cells)) (UniProt O35244). The experiment in a line: condition: only cells treated with H2O2 (200 μM) for 15 min; SDS-PAGE and immunoblot; rat pulmonary artery smooth muscle cells treated with H2O2 (200 uM) for 15 min; lysates on SDS-PAGE, immunoblot with Prx6 antibody; no Protein-SHifter. For orientation: Immunoblotting shows a protein as a band on a membrane.

Results are given in words; binding and its absence hold for the method and conditions named.

B1: Human peroxiredoxin 6 (Prx6) (enzyme, UniProt P30041 1-224)
chain: MPGGLLLGDVAPNFEANTTVGRIRFHDFLGDSWGILFSHPRDFTPVCTTELGRAAKLAPEFAKRNVKLIALSIDSVEDHLAWSKDINAYNCEEPTEKLPFPIIDDRNRELAILLGMLDPAEKDEKGMPVTARVVFVFGPDKKLKLSILYPATTGRNFDEILRVVISLQLTAEKRVATPVDWKDGDSVMVLPTIPEEEAKKLFPKGVFTKELPSGKKYLRYTPQP
As to B1, the binding entry in experiment [1] was “no binding (condition: cells treated with H2O2 for 15 min)”.

B2: Rat peroxiredoxin 6 (Prx6) (enzyme, UniProt O35244 1-224, looked up)
chain: MPGGLLLGDEAPNFEANTTIGHIRFHDFLGDSWGILFSHPRDFTPVCTTELGRAAKLAPEFAKRNVKLIALSIDSVEDHFAWSKDINAYNGAAPTEKLPFPIIDDKDRDLAILLGMLDPAEKDEKGMPVTARVVFIFGPDKKLKLSILYPATTGRNFDEILRVVDSLQLTASNPVATPVDWKKGESVMVLPTLPEEEAKQLFPKGVFTKELPSGKKYLRYTPQP
notes: Peroxiredoxin 6, rat, one cysteine only (catalytic Cys47); also called rat Prx6; source: endogenous, rat pulmonary artery smooth muscle cells (Cell Applications), in lysate
Turning to B2, the binding entry in experiment [2] is “no binding”.

The record behind these values is PMC6563020, “Protein Redox State Monitoring Studies of Thiol Reactivity” (Antioxidants, 2019).
